PubChem BioAssay AID1259425 – University of Nebraska Medical Center – 2018
In all, the deposit lists about 14,000 reagents; this is an unselected part. No sequences are given here. Not stated in the record: the time to read-out.

- Test: 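Find knockdowns that reproduce the gene expression pattern seen when KSR1 is lost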 (primary screen)
- System: HCT116 human colon cancer cells
- Reagents: siRNA pool against human genes, 50 nM siRNA
- Measured: 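After 50 nM siRNA pool, branched-DNA assay measures six marker transcripts per well, minus blank, normalised to the geometric mean of two housekeeping transcripts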
- Scale: BNIP3L mRNA: higher = more BNIP3L transcript after knockdown; NDRG1 mRNA: higher = more NDRG1 transcript after knockdown; BNIP3 mRNA: higher = more BNIP3 transcript after knockdown; ALDOC mRNA: higher = more ALDOC transcript after knockdown; ACSL5 mRNA: higher = more ACSL5 transcript after knockdown

| Target gene | PubChem SID | BNIP3L mRNA, set 1 | NDRG1 mRNA, set 1 | BNIP3 mRNA, set 1 | ALDOC mRNA, set 1 | ACSL5 mRNA, set 1 |
| --- | --- | --- | --- | --- | --- | --- |
| GRAPL-AS1 (GRAPL antisense RNA 1) | SID364005611 | 0.204 | 0.856 | 0.52 | 0.0355 | 0.503 |
| NDUFAF5 (NADH:ubiquinone oxidoreductase complex assembly factor 5) | SID364004989 | 0.124 | 0.226 | 0.312 | 0.0586 | 0.185 |
| CYP4F2 (cytochrome P450 family 4 subfamily F member 2) | SID363992379 | 0.162 | 0.143 | 0.401 | 0.0243 | 0.127 |
| DUSP13B (dual specificity phosphatase 13B) | SID364000064 | 0.0782 | 0.0783 | 0.237 | 0.031 | 0.107 |
| TFF1 (trefoil factor 1) | SID363994354 | 0.0956 | 0.615 | 0.391 | 0.0388 | 0.344 |
| CKS1B (CDC28 protein kinase regulatory subunit 1B) | SID363993041 | 0.124 | 0.0779 | 0.338 | 0.0058 | 0.237 |
| PPM1E (protein phosphatase, Mg2+/Mn2+ dependent 1E) | SID363999187 | 0.074 | 0.122 | 0.183 | 0.0231 | 0.123 |
| ZSCAN26 (zinc finger and SCAN domain containing 26) | SID364004742 | 0.232 | 0.218 | 0.254 | 0.0991 | 0.122 |
| VPS51 (VPS51 subunit of GARP complex) | SID363998389 | 0.112 | 0.203 | 0.302 | 0.0842 | 0.135 |
| CLOCK (clock circadian regulator) | SID363995847 | 0.0656 | 0.365 | 0.269 | 0.0217 | 0.16 |
| SLC25A5 | SID363992444 | 0.0937 | 0.287 | 0.239 | 0.033 | 0.0504 |
| DMXL2 (Dmx like 2) | SID363999387 | 0.0547 | 0.141 | 0.332 | 0.0104 | 0.0667 |
| MAGOH (mago homolog, exon junction complex subunit) | SID363993550 | 0.107 | 0.109 | 0.369 | 0.0186 | 0.082 |
| TMPRSS3 (transmembrane serine protease 3) | SID364002685 | 0.0935 | 0.142 | 0.282 | 0.0372 | 0.164 |
| ATG12 (autophagy related 12) | SID363995666 | 0.149 | 0.0973 | 0.207 | 0.0174 | 0.127 |
| RPRD1B (regulation of nuclear pre-mRNA domain containing 1B) | SID364002099 | 0.0901 | 0.224 | 0.295 | 0.0208 | 0.12 |
| VTI1B (vesicle transport through interaction with t-SNAREs 1B) | SID363997186 | 0.0415 | 0.881 | 0.201 | 0.028 | 0.0832 |
| SORL1 (sortilin related receptor 1) | SID363994247 | 0.0878 | 0.626 | 0.355 | 0.0241 | 0.322 |
| CAPS2 (calcyphosine 2) | SID364004093 | 0.159 | 0.462 | 0.293 | 0.0489 | 0.203 |
| PRKACA (protein kinase cAMP-activated catalytic subunit alpha) | SID363993888 | 0.0789 | 0.0541 | 0.207 | 0.00767 | 0.203 |

Taken from above.
Under “BNIP3 mRNA, set 1”, ZSCAN26 (zinc finger and SCAN domain containing 26) [SID364004742] reads 0.254
Result for TFF1 (trefoil factor 1) [SID363994354] under “BNIP3 mRNA, set 1”: 0.391
